{"source": "patent US20190040004A1", "about": "“NEW COMPOUNDS FOR THE TREATMENT AND/OR PREVENTION OF PARASITIC DISEASES AND METHOD OF PRODUCTION OF THEREOF” (INSTITUT DE RECHERCHE POUR LE DEVELOPPEMENT (I.R.D.), priority 2013, published 2019)", "system": "Leishmania infantum luciferase expressing strain (MHOM/MA/ITMAP269)", "type": "cell-based", "from_the_text": "THP-1 is derived from the peripheral blood ofa human with acute monocytic leukemia.", "note": "At least one structure is not confirmed: it was looked up by name or label, or the drawing left a doubt.", "data": [{"smiles": "O=C(NO)c1ccccc1", "note": "[ST3, hydroxybenzamide, reference compound]", "values": [{"measurement": "anti-leishmanial activity, in words", "value": "presenting anti-leishmanial activity"}]}]}
